According to the supplement of paper PMC11006884:
The targets with a hit were mostly taken out for another list; the other results follow. The data scatter; read single values as rough. The entries are a selection whose mix differs from that of the whole data set.

By UniProt entry, the sequences of proteins in these tests, tags left out. Where a name states a change or a piece, a line headed by the entry shows the natural chain unless it says otherwise.
UniProt Q9UER7, whole entry, looked up: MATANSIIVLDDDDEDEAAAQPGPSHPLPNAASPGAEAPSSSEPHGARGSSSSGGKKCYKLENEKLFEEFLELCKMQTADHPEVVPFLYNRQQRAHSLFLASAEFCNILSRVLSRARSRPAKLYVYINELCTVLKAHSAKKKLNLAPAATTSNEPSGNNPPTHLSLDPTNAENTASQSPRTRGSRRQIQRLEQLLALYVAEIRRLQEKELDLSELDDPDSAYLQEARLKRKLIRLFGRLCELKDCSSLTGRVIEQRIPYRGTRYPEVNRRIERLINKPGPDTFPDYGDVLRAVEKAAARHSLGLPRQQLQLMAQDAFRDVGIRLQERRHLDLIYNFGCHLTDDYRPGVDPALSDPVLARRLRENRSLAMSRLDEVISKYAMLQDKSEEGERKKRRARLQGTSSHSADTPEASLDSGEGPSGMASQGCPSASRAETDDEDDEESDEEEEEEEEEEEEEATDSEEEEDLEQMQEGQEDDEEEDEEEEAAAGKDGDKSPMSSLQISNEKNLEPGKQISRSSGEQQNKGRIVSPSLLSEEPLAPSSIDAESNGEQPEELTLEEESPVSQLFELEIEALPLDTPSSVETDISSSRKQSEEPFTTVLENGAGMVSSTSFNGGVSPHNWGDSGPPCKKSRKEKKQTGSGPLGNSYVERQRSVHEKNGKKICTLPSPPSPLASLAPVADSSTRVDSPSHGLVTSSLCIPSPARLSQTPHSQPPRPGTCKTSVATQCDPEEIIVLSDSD
UniProt Q9UG63: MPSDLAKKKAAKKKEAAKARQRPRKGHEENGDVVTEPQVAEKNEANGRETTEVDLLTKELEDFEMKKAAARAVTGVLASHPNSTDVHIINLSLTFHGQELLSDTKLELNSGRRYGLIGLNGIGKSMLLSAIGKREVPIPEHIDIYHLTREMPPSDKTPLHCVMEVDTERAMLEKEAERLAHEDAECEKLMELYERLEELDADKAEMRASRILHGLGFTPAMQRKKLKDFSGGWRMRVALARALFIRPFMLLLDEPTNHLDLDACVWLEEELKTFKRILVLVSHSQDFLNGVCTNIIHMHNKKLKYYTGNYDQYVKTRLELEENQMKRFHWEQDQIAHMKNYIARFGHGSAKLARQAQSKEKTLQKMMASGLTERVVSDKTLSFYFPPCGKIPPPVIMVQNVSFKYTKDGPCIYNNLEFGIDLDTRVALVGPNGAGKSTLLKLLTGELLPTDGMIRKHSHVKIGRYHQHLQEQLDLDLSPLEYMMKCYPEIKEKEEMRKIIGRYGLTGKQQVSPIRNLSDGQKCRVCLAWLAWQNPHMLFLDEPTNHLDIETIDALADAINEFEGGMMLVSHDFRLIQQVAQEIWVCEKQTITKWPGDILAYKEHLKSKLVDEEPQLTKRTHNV
UniProt Q9NW13: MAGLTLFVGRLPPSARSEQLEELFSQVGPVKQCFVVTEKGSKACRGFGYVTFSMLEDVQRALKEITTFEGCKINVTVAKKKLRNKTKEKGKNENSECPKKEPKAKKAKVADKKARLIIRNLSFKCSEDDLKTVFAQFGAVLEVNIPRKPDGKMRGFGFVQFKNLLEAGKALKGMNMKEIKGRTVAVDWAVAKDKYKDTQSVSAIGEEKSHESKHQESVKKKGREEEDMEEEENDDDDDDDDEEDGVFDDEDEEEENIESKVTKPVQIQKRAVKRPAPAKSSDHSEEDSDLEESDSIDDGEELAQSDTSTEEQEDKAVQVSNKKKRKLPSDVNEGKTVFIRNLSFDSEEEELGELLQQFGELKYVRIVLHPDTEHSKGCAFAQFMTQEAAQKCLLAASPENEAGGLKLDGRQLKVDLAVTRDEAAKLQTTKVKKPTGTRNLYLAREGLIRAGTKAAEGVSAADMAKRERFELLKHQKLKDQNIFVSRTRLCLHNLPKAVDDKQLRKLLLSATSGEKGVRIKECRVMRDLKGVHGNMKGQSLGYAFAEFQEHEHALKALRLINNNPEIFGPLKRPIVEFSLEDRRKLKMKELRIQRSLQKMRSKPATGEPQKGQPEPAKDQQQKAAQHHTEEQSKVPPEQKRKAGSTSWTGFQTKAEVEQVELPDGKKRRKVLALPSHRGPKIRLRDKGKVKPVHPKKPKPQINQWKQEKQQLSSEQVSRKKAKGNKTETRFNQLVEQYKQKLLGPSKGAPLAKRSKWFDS
UniProt Q9NVI1: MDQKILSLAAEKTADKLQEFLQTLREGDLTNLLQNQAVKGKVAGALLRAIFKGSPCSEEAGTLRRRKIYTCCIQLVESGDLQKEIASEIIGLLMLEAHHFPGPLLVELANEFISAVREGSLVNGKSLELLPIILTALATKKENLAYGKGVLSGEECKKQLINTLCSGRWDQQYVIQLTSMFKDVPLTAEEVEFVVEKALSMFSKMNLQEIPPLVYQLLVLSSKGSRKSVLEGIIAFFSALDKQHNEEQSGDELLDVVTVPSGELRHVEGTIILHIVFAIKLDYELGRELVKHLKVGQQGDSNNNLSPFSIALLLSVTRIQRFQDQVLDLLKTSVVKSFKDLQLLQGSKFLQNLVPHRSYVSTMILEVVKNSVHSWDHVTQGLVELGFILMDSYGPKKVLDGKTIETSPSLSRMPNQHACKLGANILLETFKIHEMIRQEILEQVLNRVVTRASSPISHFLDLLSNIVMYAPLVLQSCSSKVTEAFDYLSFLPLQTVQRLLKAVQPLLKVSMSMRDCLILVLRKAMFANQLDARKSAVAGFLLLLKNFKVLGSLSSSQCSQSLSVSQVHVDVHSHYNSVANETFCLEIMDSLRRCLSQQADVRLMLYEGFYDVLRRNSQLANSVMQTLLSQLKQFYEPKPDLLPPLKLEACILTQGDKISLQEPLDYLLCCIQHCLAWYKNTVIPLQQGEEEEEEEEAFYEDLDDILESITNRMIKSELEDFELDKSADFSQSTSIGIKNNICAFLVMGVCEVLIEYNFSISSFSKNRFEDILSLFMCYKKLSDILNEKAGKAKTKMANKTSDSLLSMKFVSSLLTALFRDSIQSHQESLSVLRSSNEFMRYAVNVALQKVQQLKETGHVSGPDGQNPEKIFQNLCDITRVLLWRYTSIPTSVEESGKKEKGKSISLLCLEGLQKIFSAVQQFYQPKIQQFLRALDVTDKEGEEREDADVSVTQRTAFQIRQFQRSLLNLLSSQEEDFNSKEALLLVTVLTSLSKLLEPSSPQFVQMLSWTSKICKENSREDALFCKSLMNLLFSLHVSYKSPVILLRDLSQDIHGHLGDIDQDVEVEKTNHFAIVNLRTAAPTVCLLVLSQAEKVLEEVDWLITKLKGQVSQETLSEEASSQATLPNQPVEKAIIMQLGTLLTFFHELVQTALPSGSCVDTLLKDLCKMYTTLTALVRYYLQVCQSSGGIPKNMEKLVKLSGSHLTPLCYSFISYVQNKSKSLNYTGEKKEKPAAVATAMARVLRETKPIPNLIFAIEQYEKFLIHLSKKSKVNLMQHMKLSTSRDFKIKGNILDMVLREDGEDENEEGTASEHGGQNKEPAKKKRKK
UniProt Q9UHB9: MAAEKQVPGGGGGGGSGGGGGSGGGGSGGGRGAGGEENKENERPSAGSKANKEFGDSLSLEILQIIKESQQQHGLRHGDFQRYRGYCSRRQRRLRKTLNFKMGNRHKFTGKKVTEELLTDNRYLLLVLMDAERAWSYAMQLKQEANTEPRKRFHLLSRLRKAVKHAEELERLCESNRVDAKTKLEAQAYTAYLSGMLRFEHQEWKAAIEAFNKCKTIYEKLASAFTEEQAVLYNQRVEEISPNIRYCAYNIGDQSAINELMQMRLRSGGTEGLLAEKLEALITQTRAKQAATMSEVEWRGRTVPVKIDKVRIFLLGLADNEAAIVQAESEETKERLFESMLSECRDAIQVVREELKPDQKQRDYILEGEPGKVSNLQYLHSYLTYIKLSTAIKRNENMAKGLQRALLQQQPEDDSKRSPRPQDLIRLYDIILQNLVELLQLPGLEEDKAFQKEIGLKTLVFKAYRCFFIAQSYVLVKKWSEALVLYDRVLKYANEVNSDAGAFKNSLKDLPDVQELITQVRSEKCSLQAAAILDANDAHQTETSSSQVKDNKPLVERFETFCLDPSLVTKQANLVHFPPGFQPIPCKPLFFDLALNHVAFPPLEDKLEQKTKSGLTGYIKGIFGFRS
UniProt Q9P2I0: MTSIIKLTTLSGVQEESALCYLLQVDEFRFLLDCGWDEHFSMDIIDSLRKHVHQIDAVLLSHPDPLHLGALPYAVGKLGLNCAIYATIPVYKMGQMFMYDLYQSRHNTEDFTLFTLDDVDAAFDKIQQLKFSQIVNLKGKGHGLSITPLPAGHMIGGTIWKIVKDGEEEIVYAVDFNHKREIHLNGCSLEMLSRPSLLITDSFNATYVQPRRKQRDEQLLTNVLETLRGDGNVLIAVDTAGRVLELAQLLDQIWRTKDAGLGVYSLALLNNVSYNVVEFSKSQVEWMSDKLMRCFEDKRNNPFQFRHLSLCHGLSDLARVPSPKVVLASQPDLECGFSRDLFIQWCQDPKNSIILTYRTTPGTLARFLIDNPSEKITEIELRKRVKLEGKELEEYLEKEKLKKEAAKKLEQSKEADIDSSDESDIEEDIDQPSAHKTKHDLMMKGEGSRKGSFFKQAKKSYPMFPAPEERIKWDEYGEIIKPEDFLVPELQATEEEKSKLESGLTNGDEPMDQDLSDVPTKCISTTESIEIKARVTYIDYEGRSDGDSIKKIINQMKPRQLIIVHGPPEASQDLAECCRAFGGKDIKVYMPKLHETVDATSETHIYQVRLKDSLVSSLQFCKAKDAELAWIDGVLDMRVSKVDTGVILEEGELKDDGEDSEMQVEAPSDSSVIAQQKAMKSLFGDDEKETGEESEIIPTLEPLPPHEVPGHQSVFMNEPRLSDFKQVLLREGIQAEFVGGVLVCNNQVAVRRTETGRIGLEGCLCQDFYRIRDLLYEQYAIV
UniProt Q9NX14, whole entry: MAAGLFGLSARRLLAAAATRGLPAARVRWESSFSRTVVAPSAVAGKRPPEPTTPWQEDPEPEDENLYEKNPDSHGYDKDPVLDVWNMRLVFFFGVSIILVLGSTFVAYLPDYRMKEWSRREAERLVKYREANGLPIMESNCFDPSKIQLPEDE
UniProt Q9NX24: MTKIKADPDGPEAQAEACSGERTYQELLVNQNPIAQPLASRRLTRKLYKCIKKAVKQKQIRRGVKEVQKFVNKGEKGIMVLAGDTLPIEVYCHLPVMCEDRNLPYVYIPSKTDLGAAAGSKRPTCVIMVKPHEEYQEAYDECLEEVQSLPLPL
UniProt Q9NZZ3: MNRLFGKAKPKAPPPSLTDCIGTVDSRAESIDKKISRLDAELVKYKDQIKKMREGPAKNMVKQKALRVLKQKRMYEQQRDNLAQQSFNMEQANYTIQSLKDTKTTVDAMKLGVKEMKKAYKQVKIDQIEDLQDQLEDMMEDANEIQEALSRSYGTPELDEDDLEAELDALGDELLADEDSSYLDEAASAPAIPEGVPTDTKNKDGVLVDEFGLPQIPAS
UniProt Q9P032: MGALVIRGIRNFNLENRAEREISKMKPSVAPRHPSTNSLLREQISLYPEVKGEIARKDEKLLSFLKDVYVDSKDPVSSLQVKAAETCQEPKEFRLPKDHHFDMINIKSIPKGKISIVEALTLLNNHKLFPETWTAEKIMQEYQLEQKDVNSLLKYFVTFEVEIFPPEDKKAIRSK
UniProt Q9UET6: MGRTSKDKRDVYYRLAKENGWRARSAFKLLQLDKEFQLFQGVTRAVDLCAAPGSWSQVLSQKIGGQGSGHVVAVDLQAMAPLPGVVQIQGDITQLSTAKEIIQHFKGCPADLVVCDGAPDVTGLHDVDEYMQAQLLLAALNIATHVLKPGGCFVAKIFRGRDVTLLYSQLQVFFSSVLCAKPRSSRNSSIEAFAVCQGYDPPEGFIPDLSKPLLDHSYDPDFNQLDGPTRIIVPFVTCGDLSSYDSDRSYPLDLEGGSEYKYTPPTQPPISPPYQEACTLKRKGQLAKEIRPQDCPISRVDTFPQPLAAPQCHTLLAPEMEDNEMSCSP
UniProt Q9UBR2: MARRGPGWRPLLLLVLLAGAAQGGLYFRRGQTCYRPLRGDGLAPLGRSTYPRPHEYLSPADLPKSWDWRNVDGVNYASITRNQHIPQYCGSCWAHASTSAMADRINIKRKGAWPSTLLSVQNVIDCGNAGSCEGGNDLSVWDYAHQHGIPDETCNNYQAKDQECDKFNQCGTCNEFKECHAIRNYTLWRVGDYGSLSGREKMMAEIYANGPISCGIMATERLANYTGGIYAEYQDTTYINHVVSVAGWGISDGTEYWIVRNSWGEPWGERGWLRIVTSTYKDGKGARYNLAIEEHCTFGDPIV
UniProt Q9NY12: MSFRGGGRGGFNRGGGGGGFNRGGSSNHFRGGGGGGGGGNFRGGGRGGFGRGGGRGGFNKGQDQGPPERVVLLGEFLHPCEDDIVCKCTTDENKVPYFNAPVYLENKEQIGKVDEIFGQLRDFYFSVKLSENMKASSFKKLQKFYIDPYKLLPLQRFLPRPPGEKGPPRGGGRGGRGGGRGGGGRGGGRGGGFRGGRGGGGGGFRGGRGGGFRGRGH

compound: COC(=O)/C=C/c1ccccc1 [methyl cinnamate]; assay: log2 ratio of iodoacetamide-alkyne labeling of the cysteine site, DMSO over compound (competition); higher = stronger covalent engagement of the cysteine by the compound, active = 1 or more; conditions: 500 µM; treatment time 1 h; system: HEK293T cell lysate
Summary of the method: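 HEK293T lysate (2 mg/mL) was incubated with electrophile (500 µM) or vehicle for 1 h at ambient temperature and then with iodoacetamide alkyne for 1 h. Labelled proteins were clicked to sCIP-TMT reagents, pooled, digested, enriched on streptavidin and measured by Orbitrap Eclipse LC-MS/MS with FAIMS, with FragPipe quantification. The per-cysteine log2 competition ratio is mean control-channel reporter intensity over mean compound-channel reporter intensity. Across three replicates with duplicate channels, cysteines quantified in only one replicate were excluded.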

log2 ratio of iodoacetamide-alkyne labeling, inactive:
FAM120C C14 (UniProt Q9NX05) 0.33
TMEM30A C17 (UniProt Q9NV96) 0.218
DAXX C720 (UniProt Q9UER7) 0.494
FAM120A C892 (UniProt Q9NZB2) 0.662
ABCF2 C411 (UniProt Q9UG63) 0.319
UniProt Q9P260_C624 -0.151
RBM28 C378 (UniProt Q9NW13) 0.288
ADD3 C73 (UniProt Q9UEY8) 0.227
RIC8B C373 (UniProt Q9NVN3) -0.000753
UniProt Q9NWY4_C29 0.275
FANCI C594 (UniProt Q9NVI1) -0.21
SRP68 C525 (UniProt Q9UHB9) 0.0575
UniProt Q9NUQ3_C480 0.277
NDRG3 C375 (UniProt Q9UGV2) 0.189
ARL15 C53 (UniProt Q9NXU5) 0.304
UniProt Q9NUQ3_C56 0.232
TES C238 (UniProt Q9UGI8) 0.0473
ALKBH4 C204 (UniProt Q9NXW9) 0.0209
CPSF2 C765 (UniProt Q9P2I0) 0.202
NDUFB11 C141 (UniProt Q9NX14) -0.0887
OGFR C87 (UniProt Q9NZT2) 0.349
ANKFY1 C1156 (UniProt Q9P2R3) 0.144
STK39 C450 (UniProt Q9UEW8) -0.0648
NHP2 C18 (UniProt Q9NX24) 0.319
CHMP5 C20 (UniProt Q9NZZ3) 0.393
DDX18 C329 (UniProt Q9NVP1) 0.273
PPP4R2 C134 (UniProt Q9NY27) 0.186
UniProt Q9P032_C87 0.338
POLR3E C70 (UniProt Q9NVU0) 0.168
CHORDC1 C211 (UniProt Q9UHD1) 0.12
FTSJ1 C49 (UniProt Q9UET6) 0.294
CTSZ C92 (UniProt Q9UBR2) -0.297
OCIAD1 C38 (UniProt Q9NX40) -0.0122
TRMT1 C621 (UniProt Q9NXH9) 0.575
MED17 C241 (UniProt Q9NVC6) 0.0537
GAR1 C80 (UniProt Q9NY12) 0.0937
ARHGEF12 C921 (UniProt Q9NZN5) 0.157

Looked up one by one from above:
log2 ratio of iodoacetamide-alkyne labeling, inactive:
ABCF2 C411 (UniProt Q9UG63) 0.319
ARL15 C53 (UniProt Q9NXU5) 0.304
